System: HEK293 cells

COc1ccc(CC(C)NCC(O)c2ccc(O)c(NC=O)c2)cc1 (stereo not shown) [formoterol]
Agonist-triggered Ca2+ increase: not able to observe

From article PMC12222587, “A2B adenosine receptor-triggered intracellular calcium mobilization: Cell type-dependent involvement of Gi, Gq, Gs proteins and protein kinase C” (Purinergic Signalling, 2025)
